Laboratory results: PubChem BioAssay AID1259254 (NCATS, 2017)
Purpose: 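Genome-wide screen for genes that prevent DNA re-replication in cancer cells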 (primary screen). System: human HCT116 colorectal cancer cells. Knock-down reagent: single siRNA against human genes. Timing: 3 days. Detection: 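Nuclei stained with Hoechst and imaged; cell-cycle phase assigned by DNA content; G2 share scaled per plate, non-targeting siRNA 0%, GMNN siRNA 100%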. Direction: G2 robust z-score: higher = more G2 cells, more excess DNA replication. Call rule: 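An siRNA counts as active if its G2 robust z-score lies at least 5 MADs above the screen median; here such calls match roughly 38% of GMNN control or more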.
In all, the deposit lists about 59,000 reagents; this is an unselected part. In the full data, about 1,550 (2.6%) are marked active. 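G2 share is only a proxy for re-replication; each gene was hit by three separate siRNAs, and active genes were retested.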 Entries without a mark were called inactive. The numbers tell different reagents against one gene apart. Not all columns of the deposit are shown. The record does not give: the amount of reagent.

DENND4A #1: G2 robust z-score = -0.505
DENND4A #2: G2 robust z-score = 2.2
DENND4A #3: G2 robust z-score = 0.121
KRT10 #1: G2 robust z-score = -0.688
KRT10 #2: G2 robust z-score = -0.0206
KRT10 #3: G2 robust z-score = 0.714
P2RX5 #1: G2 robust z-score = -0.0133
P2RX5 #2: G2 robust z-score = -0.633
P2RX5 #3: G2 robust z-score = 0.681
WFDC10B #1: G2 robust z-score = 0.136
WFDC10B #2: G2 robust z-score = 0.154
WFDC10B #3: G2 robust z-score = -0.492
CDKN3 #1: G2 robust z-score = -0.926
CDKN3 #2: G2 robust z-score = 2.52
CDKN3 #3: G2 robust z-score = 0.528
RHOXF2 #1: G2 robust z-score = 2.87
RHOXF2 #2: G2 robust z-score = 1.59
RHOXF2 #3: G2 robust z-score = -0.491
LINC01346 #1: G2 robust z-score = 0.899
LINC01346 #2: G2 robust z-score = -0.368
LINC01346 #3: G2 robust z-score = 0.721
KCNN4 #1: G2 robust z-score = -0.692
KCNN4 #2: G2 robust z-score = 0.652
KCNN4 #3: G2 robust z-score = 1.74

Part of the list above in another layout.
gene symbol | reagent no. | G2 robust z-score
KRT10 | 1 | -0.688
KRT10 | 2 | -0.0206
KRT10 | 3 | 0.714
